Experimental data: PubChem BioAssay AID686943 (Drosophila RNAi Screening Center, 2013)
Test: 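Search across the genome for regulators of signalling from receptor tyrosine kinase to ERK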 (primary screen). Cell system: Drosophila S2R+ haemocyte-like cells expressing YFP-tagged ERK (Rolled). Reagent: long dsRNA against Drosophila genes. Conditions: insulin stimulation versus unstimulated cells; dose and duration not given. Detection: 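Per-plate z-scores of phospho-ERK immunostaining normalised to YFP-tagged ERK, measured with and without insulin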. Scale: replicate 1, z-score of dpERK with insulin and replicate 2, z-score of dpERK with insulin: higher = more active ERK per ERK-YFP after insulin.
The deposit covers about 23,000 reagents; this is an unselected part of those that have a named target and a result. 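Extra replicates exist only for a retested subset of genes; insulin dose and duration not given; both raised and lowered dpERK matter.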 Names joined by + are all predicted targets of the reagent. Not all columns of the deposit are shown. Not stated in the record: the amount of reagent, the time to read-out.

{"predicted target": "Octalpha2R (alpha2-adrenergic-like octopamine receptor)", "DRSC id": "DRSC13319", "replicate 1, z-score of dpERK with insulin": 1.02, "replicate 2, z-score of dpERK with insulin": -0.21}
{"predicted target": "Octalpha2R (alpha2-adrenergic-like octopamine receptor)", "DRSC id": "DRSC15314", "replicate 1, z-score of dpERK with insulin": 0.49, "replicate 2, z-score of dpERK with insulin": 0}
{"predicted target": "Nost (Nostrin)", "DRSC id": "DRSC18037", "replicate 1, z-score of dpERK with insulin": 1.22, "replicate 2, z-score of dpERK with insulin": -0.1}
{"predicted target": "Nost (Nostrin)", "DRSC id": "DRSC18338", "replicate 1, z-score of dpERK with insulin": 1.02, "replicate 2, z-score of dpERK with insulin": 0.58}
{"predicted target": "mod(mdg4) (modifier of mdg4)", "DRSC id": "DRSC13474", "replicate 1, z-score of dpERK with insulin": 0.51, "replicate 2, z-score of dpERK with insulin": -0.11}
{"predicted target": "mod(mdg4) (modifier of mdg4)", "DRSC id": "DRSC13475", "replicate 1, z-score of dpERK with insulin": -0.05, "replicate 2, z-score of dpERK with insulin": -0.23}
{"predicted target": "mod(mdg4) (modifier of mdg4)", "DRSC id": "DRSC13478", "replicate 1, z-score of dpERK with insulin": 1.08, "replicate 2, z-score of dpERK with insulin": 0.19}
{"predicted target": "mod(mdg4) (modifier of mdg4)", "DRSC id": "DRSC13479", "replicate 1, z-score of dpERK with insulin": 0.77, "replicate 2, z-score of dpERK with insulin": -0.15}
{"predicted target": "mod(mdg4) (modifier of mdg4)", "DRSC id": "DRSC15042", "replicate 1, z-score of dpERK with insulin": -0.73, "replicate 2, z-score of dpERK with insulin": -0.3}
{"predicted target": "mod(mdg4) (modifier of mdg4)", "DRSC id": "DRSC17000", "replicate 1, z-score of dpERK with insulin": 0.18, "replicate 2, z-score of dpERK with insulin": 0.65}
{"predicted target": "CG9372", "DRSC id": "DRSC11068", "replicate 1, z-score of dpERK with insulin": -1.47, "replicate 2, z-score of dpERK with insulin": 0.49}
{"predicted target": "Ir48b (Ionotropic receptor 48b)", "DRSC id": "DRSC06320", "replicate 1, z-score of dpERK with insulin": -0.75, "replicate 2, z-score of dpERK with insulin": -0.03}
{"predicted target": "CG3397", "DRSC id": "DRSC15487", "replicate 1, z-score of dpERK with insulin": 1.1, "replicate 2, z-score of dpERK with insulin": 0.2}
{"predicted target": "iotaTry (iotaTrypsin)", "DRSC id": "DRSC07634", "replicate 1, z-score of dpERK with insulin": -0.21, "replicate 2, z-score of dpERK with insulin": -0.51}
{"predicted target": "Tsp66A + CG42661 + CG42660", "DRSC id": "DRSC10233", "replicate 1, z-score of dpERK with insulin": -0.32, "replicate 2, z-score of dpERK with insulin": -0.15}
{"predicted target": "CG15450", "DRSC id": "DRSC20522", "replicate 1, z-score of dpERK with insulin": 0.47, "replicate 2, z-score of dpERK with insulin": -0.2}
{"predicted target": "levy", "DRSC id": "DRSC04289", "replicate 1, z-score of dpERK with insulin": -0.56, "replicate 2, z-score of dpERK with insulin": 0.04}

Quoted from the listing, 3 entries:
{"predicted target": "iotaTry (iotaTrypsin)", "DRSC id": "DRSC07634", "replicate 1, z-score of dpERK with insulin": -0.21, "replicate 2, z-score of dpERK with insulin": -0.51}
{"predicted target": "Tsp66A + CG42661 + CG42660", "DRSC id": "DRSC10233", "replicate 1, z-score of dpERK with insulin": -0.32, "replicate 2, z-score of dpERK with insulin": -0.15}
{"predicted target": "CG15450", "DRSC id": "DRSC20522", "replicate 1, z-score of dpERK with insulin": 0.47, "replicate 2, z-score of dpERK with insulin": -0.2}

The results go on:
{"predicted target": "Phae1 (Phaedra 1)", "DRSC id": "DRSC02554", "replicate 1, z-score of dpERK with insulin": 0.85, "replicate 2, z-score of dpERK with insulin": 0.49}
{"predicted target": "mTerf5 (mitochondrial transcription termination factor 5)", "DRSC id": "DRSC16209", "replicate 1, z-score of dpERK with insulin": 0.93, "replicate 2, z-score of dpERK with insulin": 0.65}
{"predicted target": "CG12025", "DRSC id": "DRSC08230", "replicate 1, z-score of dpERK with insulin": 0.31, "replicate 2, z-score of dpERK with insulin": 0.79}
{"predicted target": "nAChRalpha2 (nicotinic Acetylcholine Receptor alpha2)", "DRSC id": "DRSC17009", "replicate 1, z-score of dpERK with insulin": -0.8, "replicate 2, z-score of dpERK with insulin": 0.78}
{"predicted target": "CG13085", "DRSC id": "DRSC02189", "replicate 1, z-score of dpERK with insulin": 0.11, "replicate 2, z-score of dpERK with insulin": 0.57}
{"predicted target": "PK2-R2 (Pyrokinin 2 receptor 2)", "DRSC id": "DRSC16448", "replicate 1, z-score of dpERK with insulin": -0.39, "replicate 2, z-score of dpERK with insulin": -1.67}
{"predicted target": "CG34167", "DRSC id": "DRSC01525", "replicate 1, z-score of dpERK with insulin": -0.19, "replicate 2, z-score of dpERK with insulin": 0.3}
{"predicted target": "CG7352", "DRSC id": "DRSC16233", "replicate 1, z-score of dpERK with insulin": 0.15, "replicate 2, z-score of dpERK with insulin": 0.61}
{"predicted target": "dnr1 (defense repressor 1)", "DRSC id": "DRSC03948", "replicate 1, z-score of dpERK with insulin": 0.13, "replicate 2, z-score of dpERK with insulin": -0.59}
{"predicted target": "dnr1 (defense repressor 1)", "DRSC id": "DRSC04122", "replicate 1, z-score of dpERK with insulin": 0.49, "replicate 2, z-score of dpERK with insulin": 0.88}
{"predicted target": "alphaTub85E (alpha-Tubulin at 85E)", "DRSC id": "DRSC16899", "replicate 1, z-score of dpERK with insulin": -2.9, "replicate 2, z-score of dpERK with insulin": -2.77}
{"predicted target": "cert (ceramide transfer protein)", "DRSC id": "DRSC09674", "replicate 1, z-score of dpERK with insulin": 0.29, "replicate 2, z-score of dpERK with insulin": 0.73}
{"predicted target": "CG14300", "DRSC id": "DRSC14779", "replicate 1, z-score of dpERK with insulin": 0.06, "replicate 2, z-score of dpERK with insulin": -0.53}
{"predicted target": "Mpcp2", "DRSC id": "DRSC11226", "replicate 1, z-score of dpERK with insulin": 0.78, "replicate 2, z-score of dpERK with insulin": 0.11}
